These are yes or no findings as the source states them, for the method shown.

This is an account of results in doi:10.1101/2020.01.04.893909 (bioRxiv, 2020).

The target of the test is S. pombe homologue of GAP (Rna1), recombinant (S. pombe) (UniProt P41391). Put plainly: SEC. (In gel filtration, larger molecules generally elute earlier.)

B1: S. pombe homologue of GAP (Rna1), recombinant (protein, UniProt P41391 1-386)
chain: MSRFSIEGKSLKLDAITTEDEKSVFAVLLEDDSVKEIVLSGNTIGTEAARWLSENIASKKDLEIAEFSDIFTGRVKDEIPEALRLLLQALLKCPKLHTVRLSDNAFGPTAQEPLIDFLSKHTPLEHLYLHNNGLGPQAGAKIARALQELAVNKKAKNAPPLRSIICGRNRLENGSMKEWAKTFQSHRLLHTVKMVQNGIRPEGIEHLLLEGLAYCQELKVLDLQDNTFTHLGSSALAIALKSWPNLRELGLNDCLLSARGAAAVVDAFSKLENIGLQTLRLQYNEIELDAVRTLKTVIDEKMPDLLFLELNGNRFSEEDDVVDEIREVFSTRGRGELDELDDMEELTDEEEEDEEEEAESQSPEPETSEEEKEDKELADELSKAHI
Regarding B1, the binding result is given as “no binding”.
